Results as given in paper PMC6964919.
These are yes or no findings as the source states them, for the method shown. In cells and extracts the contact can be indirect. A yes stands for co-enrichment or nearness to the bait. Other partners may have been found. Values belong to the binder of their own block, whether it stands above or below them.

Molecular target: GFP-tagged G3BP1 (Ras-GTPase activating SH3 domain binding protein 1)
Experiment: affinity purification with mass spectrometry

B1: NUFP2 (protein, UniProt Q5F2E7 1-692)
chain: MEEKPGQPQPQHHHSHHHPHHHPQQQQQQQSHHHHHYYFYNHSHNHHHHHHHQQPHQYLQHGAEGSPKAQPKPLKHEQKHTLQQHQETPKKKTGYGEINGNAGEREISLKSLSSDEATNPISRVLNGNQQVVETSLKQTVKTSTFGKAGIKTKNFIQKNSMDKKNGKSYENKSGETQAVDKTDTIAIPNGVITSSSGYITNGYMSKGADNDGSGSESGYTTPKKRKARRNSAKGCENLNLVQDKIMQETSVPALKQGLETLKPDYSEQKGMRVDGSKPIWKYETGPGGTSRGKPAMGDVLRKSSDIKPGLSSKKFDDRPKGKHASAAASKEDSWTLFKPPPVFPVDNSSAKIVPKISYASKVKENLNKTVQNSSVSPSSSSSSSSTGETQTQSSSRLSQVPMSALKSVTSASFSNGPVLAGTDGSVYPSGGQPLLTTAANTLTPISTGTDSVLQDMSLASAAVEQIKSSLFIYPSNMQTVLLSAQVDLPSQTDQQNLGDIFQNQWGLSFINEPSAGPETVIGKSSDHKVMEVTFQGEYPATLVSQGAEIIPSGTEHPVFPKAYELEKRTSPQVLGHILKPGTTESGALSLDPSHIGDLQKADTSSQGALVFLSKDYEIENQNPLASPTNTLLGSAKEQRYQRGLERNDSWGSFDLRAAIVYHTKEMESIWNLQKQDPKRIITYNEAMDSPDQ
- binding: binds

B2: BRX1 (protein, UniProt Q9DCA5 1-353)
chain: MAATKRKRRGGLEVQAKKPKRSSKDAGQPAKQADVAKEAEEENRDRIPGPVCKGKWKNKERILIFSSRGINFRTRHLMQDLRMLMPHSKADTKMDRKDKLFVINEVCEMKNCNKCIYFEAKKKQDLYMWLSNSPHGPSAKFLVQNIHTLAELKMTGNCLKGSRPLLSFDPAFDDLPHYALLKEFLIQIFSTPRYHPKSQPFVDHVFTFTILDNRIWFRNFQIIEEDAALVEIGPRFVLNLIKIFQGSFGGPTLYENPHYQSPNMHRRVIRSITAAKYRERQQVKDVQKLRKKEPKTILPHDPTADVFVIPAEEKPVEIQWVKPEPKVDLKARKRRIYKRHRKLQQKMSRGSAK
- binding: binds

B4: Ddx47 (protein, UniProt Q9CWX9 1-455)
chain: MAADEEPDSPSGALQTAAEEEETKTFKDLGVTDVLCEACDQLGWAKPTKIQIEAIPLALQGRDIIGLAETGSGKTGAFALPILNALLETPQRLFALVLTPTRELAFQISEQFEALGSSIGVQCAVIVGGIDSMSQSLALAKKPHIVIATPGRLIDHLENTKGFNLRALKYLVMDEADRILNMDFETEVDKILKVIPRDRKTFLFSATMTKKVQKLQRAALKNPVKCAVSSKYQTVEKLQQYYLFIPSKFKDTYLVYILNELAGNSFMIFCSTCNNTQRTALLLRNLGFTAIPLHGQMSQSKRLGSLNKFKAKARSILLATDVASRGLDIPHVDVVVNFDIPTHSKDYIHRVGRTARAGRSGKAITFVTQYDVELFQRIEHLIGKKLPVFPTQDEEVMMLTERVNEAQRFARMELREHGEKKKRKREDAGDDDDKEGAIGVRNKVAGGKMKKRKGR
- binding: binds

B6: RRP1 (protein, UniProt P56183 1-494)
chain: MVPGVPLPPEIQLAQRLAGNEQVTRDRALRKLRKYIEARSQRATGGFTPDELLKVWKGLFYCMWMQDKPLQQEELGRTIAQLVHAFHTTEAQHQFLKAFWQTMIREWVGIDRLRLDKFYMLMRMVLSESLKAVKARGWDERQIEQLLELLTTEILNPDSQAPSGVKSHFLEIFLEELAKVGAAELTADQNLQFIDPFCQIAARTKDSQVLHKIIQSIFQTIVEQAPLAIEDIMNELDTQSGEGEASDGDDGEASDGDDGEASDDDDGEASDGGDGDVADSDDSDGADDDDGDVSDGDGGDNDEGDSNKSSEGEQDLQDTPPKKLPAGTAHRAGPEADKEQAWDDEENAGPVLQFDYEALANRLFKLASRQSTPSQNRKRLYKVIQKLRELAGGTFPEDDVPEKAYKKMLEGRRERKKKKKRLPKPQPQNKEAGSEAESSSADPGPGRKRKRNRKTDEKAGQGGPPGKRRKPGARAKGAGAQQPKKRIQSSQSAE
- binding: binds

B8: RRP9 (protein, UniProt Q91WM3 1-475)
chain: MSTAVATRKRAKPAPGPGAAPVAGKRRRKVDSAADRGKSKGGGKMNEEISSDSESESLAPRKTEEEEEEELEETAQEKKLRLAKLYLEQLRQQEEEKAEARAFEEDQVAGRLKEDVLEQRGRLQKSVAKEIQAPAPTDIRVLRGHQLSITCLVITPDDLAIFSAAKDCTIIKWSVETGRKLHVIPRAKKGAQGQPAGHSSHVLCMAISSDGKYLASGDRSKLILIWEAQSCQHLYTFTGHRDAVSGLAFRKGTHQLYSTSHDRSVKVWNAAENSYVETLFGHQDAVAALDALSRECCVTAGGRDGTVRVWKIPEESQLVFYGHQGSIDCIHLINEEHMVSGADDGSVALWGLSKKRPLALQREAHGLHGEPGLEQPFWVSSVAALLNTDLVATGSHNARVRLWQCGEGFRQLDPLCDIPLVGFINSLKFSSAGDFLVAGVGQEHRLGRWWRIKEARNSVCIIPLRRLPVSPVAGS
- binding: binds

Next, values leading:

- binding: binds
B3: Rrs1 (protein, UniProt Q9CYH6 1-365)
chain: MEGQRVEELLAKAEQEEAEKLQRITVHKELELEFDLGNLLASDRNPPTVLRQAGPSPEAELRALARDNTQLLINQLWRLPTERVEEAVVARLPEPATRLPREKPLPRPRPLTRWQQFARLKGIRPKKKTNLVWDEASGQWRRRWGYKRARDDTKEWLIEVPGSADPMEDQFAKRTQAKKERVAKNELNRLRNLARAHKMQMPSSAGLHPTGHQSKEELGRAMQVAKVSTASVGRFQERLPKEKAPRGSGKKRKFQPLFGDFAAEKKNQLELLRVMNSKKPRLDVTRATNKQMREEDQEEAAKRRKMSQKGKRKGGRQGPSGKRKGGPPGQGEKRKGGLGSKKHSWPSALAGKKKGVPPQGGKRRK

- binding: binds
B5: m6-adenosine reader protein YTHDF3 (protein, UniProt Q8BYK6 1-585)
chain: MSATSVDQRPKGQGNKVSVQNGSIHQKDAVNDDDFEPYLSSQTNQNNSYPPMSDPYMPSYYAPSIGFPYSLGEAAWSTAGDQPMPYLTTYGQMSNGEHHYIPDGVFSQPGALGNTPPFLGQHGFNFFPGNADFSTWGTSGSQGQSTQNSAYSSSYGYPPSSLGRAITDGQAGFGNDTLSKVPGISSIEQGMTGLKIGGDLTAAVTKTVGTALSSSGMTSIATNNVPPVSSAAPKPTSWAAIARKPAKPQPKLKPKGNVGIGGSAVPPPPIKHNMNIGTWDEKGSVVKAPPTQPVLPPQTIIQQPQPLIQPPPLVQSQLPQQQPQPPQPQQQQGPQPQAQPHQVQSQQPQLQNRWVAPRNRGTGFNQNNGTGSENFGLGVVPVSASPSSVEVHPVLEKLKAINNYNPKDFDWNLKNGRVFIIKSYSEDDIHRSIKYSIWCSTEHGNKRLDAAYRSLNGKGPLYLLFSVNGSGHFCGVAEMKSVVDYNAYAGVWSQDKWKGKFEVKWIFVKDVPNNQLRHIRLENNDNKPVTNSRDTQEVPLEKAKQVLKIIATFKHTTSIFDDFAHYEKRQEEEEAMRRERNRNKQ

- binding: binds
B7: RRP8 (protein, UniProt Q9DB85 1-457)
chain: MFEEPEWVEAAPAIVGLGAATAQVRPATAPPVKGRKRRHLLATLRALEAASLSQQTPSLPGSDSEEEEEVGRKKRHLQRPSLASVSKEVGKKRKGKCQKQAPSISDSEGKEIRRKCHRQAPPLGGVSAGEEKGKRKCQEYSSLHLTQPLDSVDQTVHNSRTSTATIDPSKPSPESMSPNSSHTLSRKQWRNRQKNKRRHKNKFRPLQTPEQAPPKASIEETEVPPVPKSDSQESRAGALRARMTQRLDGARFRYLNEQLYSGPSSAARRLFQEDPEAFLLYHRGFQRQVKKWPLHPVDRIAKDLRQKPASLVVADFGCGDCRLASSVRNPVHCFDLASLDPRVTVCDMAQVPLEDESVDVAVFCLSLMGTNIRDFLEEANRVLKTGGLLKVAEVSSRFEDIRTFLGAVTKLGFKIIYKDLTNSHFFLFDFEKTGPPRVGPKAQLSGLKLQPCLYKRR

- binding: binds
B9: Ddx51 (protein, UniProt Q6P9R1 1-639)
chain: MALFHIARYAGPEAAGQGDTDAEAGSRARVLLERLQNRARERQQREPELETTGTAGEGEAAAAGKRRRRPRRRRRVSGSATPNSEAPRAKRRKADKDVDAGRGEEAPEELSAGAEDPGANPQEDVQRPPAPGRVLGDFARRKTPKVQPFLPAWLAKPSCVKKSVTEDLTPIEDIPEVHPDLQKQLRANGITSYFPVQAAVIPALLESADHGFLIGRGGYQPSDLCVSAPTGSGKTLAFVIPVVQALLHRVVCHIRALVVLPTKELAQQVSKVFNIYTDTTPLRVALVTGQKSLAKEQESLVQKTADGFRCLADIVVATPGRLVDHIDQTPGFSLQQLRFLIIDEADRMIDSMHQSWLPRVVAAAFYSEGPTGSCALLQRTQPQALTAASTCVPQMPLQKLLFSATLTQDPEKLQRLGLYQPRLFSTRLGQQSPKDTAEVDENSGKYTFPVGLTHHYVPCRLSSKPLIVLHLVLRMSCSRALCFTNSRENSHRLYLLAQAFGGVSVAEFSSRYGPGQRKKILKQFEQGKIQLLISTDATARGIDVQGVELVINYDAPQYLRTYVHRVGRTARAGKTGQAFTLLLKVQERKFLQMVSEAGVPELTHHEIPRKLLQPLVARYETALSQLEKTVKEEQKLKAA

- binding: binds
B10: Ddx27 (protein, UniProt Q921N6 1-760)
chain: MLAELGFIRTIGENDEVPVEPESDSGDEEEEGPIVLGRKQKALQKNRSADFNPDFVFTEKEGMYDGSWALADVMSQLKKKRAATTLDEKIEKVRKRRKAEDKEAKSGKVEEKEGQADSDLKGQENPGEDEAGSKDEDSETDYSSEDEEILTKADTLKVKEKKKKKKGQAAGGFFEDASEYDKSLSFQDMNLSRPLLKAITAMGFKQPTPIQKACIPVGLLGKDICACAATGTGKTAAFALPVLERLIYKPRQAAVTRVLVLVPTRELGIQVHSVTKQLAQFCSITTCLAVGGLDVKSQEAALRAAPDILIATPGRLIDHLHNCPSFHLSSIEVLILDEADRMLDEYFEEQMKEIIRMCSHHRQTMLFSATMTDEVKDLASVSLKNPVRIFVNSNTDVAPFLRQEFIRIRPNREGDREAIVAALLMRTFTDHVMLFTQTKKQAHRMHILLGLLGLQVGELHGNLSQTQRLEALRRFKDEQIDILVATDVAARGLDIEGVKTVINFTMPNTVKHYVHRVGRTARAGRAGRSVSLVGEEERKMLKEIVKAAKAPVKARILPQDVILKFRDKIEKLEKDVYAVLQLEAEEKEMQQSEAQIDTAQRLLAKGKETADQEPERSWFQTKEERKKEKIAKALQEFDLALRGKKKRKKFMKDAKKKGEMTAEERSQFEILKAQMFAERLAKRNRRTKRARAMPEDEPTGPAKKQKQQQKSVFDEELTNTSKKALKQYRAGPSFEERKQSGLPRQRRGNFKSKSRYKRKK

- binding: binds
B11: BST2 (protein, UniProt Q8R2Q8 1-152)
chain: MAPSFYHYLPVPMDEMGGKQGWGSHRQWLGAAILVVLFGVTLVILTIYFAVTANSVACRDGLRAQAECRNTTHLLQRQLTRTQDSLLQAETQANSCNLTVVTLQESLEKKVSQALEQQARIKELENEVTKLNQELENLRIQKETSSTVQVNS
